Data: the supplement of paper PMC12823440, “Inhibitors supercharge kinase turnover through native proteolytic circuits” (Nature, 2025)
Counter-ions that a name gives are not always drawn. This is one part of the list. The calls rarely recur for the same compound in another form.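 Kinases, fused to nanoluciferase, were expressed in K562 cells; luminescence was measured every 4 h from 2 to 18 h as percent of control (DMSO = 100%, positive control = 0%). A time point is decreased if signal falls significantly (2 sigma). Hits were called by the authors by a rule that is not shown; the count of time points alone does not decide it.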

Protein sequences, listed by entry. Tags and fused reporters are not part of them.
UniProt P07949, whole entry, looked up: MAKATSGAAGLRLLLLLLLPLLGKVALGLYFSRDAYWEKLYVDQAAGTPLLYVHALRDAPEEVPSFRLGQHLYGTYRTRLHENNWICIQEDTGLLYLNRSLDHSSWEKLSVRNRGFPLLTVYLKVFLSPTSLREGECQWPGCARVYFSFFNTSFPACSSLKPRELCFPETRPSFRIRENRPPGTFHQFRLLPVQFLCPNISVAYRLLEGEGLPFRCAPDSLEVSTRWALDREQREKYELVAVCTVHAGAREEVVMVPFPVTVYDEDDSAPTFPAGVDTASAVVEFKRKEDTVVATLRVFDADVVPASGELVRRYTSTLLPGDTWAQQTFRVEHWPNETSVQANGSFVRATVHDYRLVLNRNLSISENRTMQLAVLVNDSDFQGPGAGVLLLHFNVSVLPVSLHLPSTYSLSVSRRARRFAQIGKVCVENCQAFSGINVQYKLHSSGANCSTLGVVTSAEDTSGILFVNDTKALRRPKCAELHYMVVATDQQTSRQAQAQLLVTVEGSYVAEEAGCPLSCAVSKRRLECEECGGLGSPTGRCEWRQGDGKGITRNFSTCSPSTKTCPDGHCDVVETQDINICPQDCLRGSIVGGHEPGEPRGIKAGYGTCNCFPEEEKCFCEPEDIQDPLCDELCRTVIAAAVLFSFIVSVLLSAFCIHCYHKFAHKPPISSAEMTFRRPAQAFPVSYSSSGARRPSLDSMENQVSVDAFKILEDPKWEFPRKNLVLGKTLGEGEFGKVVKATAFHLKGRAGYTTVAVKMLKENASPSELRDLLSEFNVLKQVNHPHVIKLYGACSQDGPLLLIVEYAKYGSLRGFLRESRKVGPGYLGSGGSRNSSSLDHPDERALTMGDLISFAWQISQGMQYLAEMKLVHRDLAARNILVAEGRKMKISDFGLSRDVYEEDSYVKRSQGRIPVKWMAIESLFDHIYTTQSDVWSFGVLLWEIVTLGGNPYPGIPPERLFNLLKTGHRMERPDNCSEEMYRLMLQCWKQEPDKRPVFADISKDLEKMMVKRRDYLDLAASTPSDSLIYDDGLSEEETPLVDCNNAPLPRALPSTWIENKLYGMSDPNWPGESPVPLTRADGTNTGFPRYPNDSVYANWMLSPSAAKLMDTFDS

biological target: RET (UniProt P07949); assay: kinase-Nluc reporter destabilization hit call (1 = scored as downregulated) (binary); higher = compound decreases kinase abundance; settings: 2.5 µM; K562; 2-18 h

kinase-Nluc reporter destabilization hit call, inactive:
Cc1cccc(-c2[nH]c(CNc3ccccc3F)nc2-c2ccc3ncnn3c2)n1 [Vactosertib] 0
c1cc(-c2cnn3cc(-c4ccc(OCCN5CCCCC5)cc4)cnc23)ccn1 [Dorsomorphin (dihydrochloride)] 0
Oc1cccc(-c2nc(N3CCOCC3)c3oc4ncccc4c3n2)c1 [PI-103 (Hydrochloride)] 0
C=CC(=O)Nc1cc(Nc2nccc(-c3cn(C)c4ccccc34)n2)c(OC)cc1N(C)CCN(C)C [Osimertinib mesylate] 0
CNC(=O)c1cc(Oc2ccc(NC(=O)Nc3ccc(Cl)c(C(F)(F)F)c3)c(F)c2)ccn1 [Regorafenib (monohydrate)] 0
Cc1cccc(-c2[nH]c(CNc3ccccc3F)nc2-c2ccc3ncnn3c2)n1 [Vactosertib (Hydrochloride)] 0
COc1ccc(S(=O)(=O)Nc2ccccc2CN(C)C/C=C/c2ccc(Cl)cc2)cc1 [KN-92 (hydrochloride)] 0
CN(C)C(=O)c1cc2cnc(Nc3ccc(N4CCNCC4)cn3)nc2n1C1CCCC1 [Ribociclib hydrochloride] 0

At a glance, some entries already given:
kinase-Nluc reporter destabilization hit call, inactive:
c1cc(-c2cnn3cc(-c4ccc(OCCN5CCCCC5)cc4)cnc23)ccn1 [Dorsomorphin (dihydrochloride)] 0
Oc1cccc(-c2nc(N3CCOCC3)c3oc4ncccc4c3n2)c1 [PI-103 (Hydrochloride)] 0

same assay, conditions: 10 µM; K562; 2-18 h

kinase-Nluc reporter destabilization hit call, inactive:
CNC(=O)c1ccc(Nc2ncc(C(F)(F)F)c(NCc3nccnc3N(C)S(C)(=O)=O)n2)cc1 [Defactinib (hydrochloride)] 0
C#Cc1cccc(Nc2ncnc3cc4c(cc23)OCCOCCOCCO4)c1 [Icotinib (Hydrochloride)] 0
CNC(=O)c1ccc(Nc2ncc(C(F)(F)F)c(NCc3nccnc3N(C)S(C)(=O)=O)n2)cc1 [Defactinib] 0
N#CCNC(=O)c1ccc(-c2ccnc(Nc3ccc(N4CCOCC4)cc3)n2)cc1 [Momelotinib sulfate] 0
N#CCC1(n2cc(-c3ncnc4[nH]ccc34)cn2)CN(C2CCN(C(=O)c3ccnc(C(F)(F)F)c3F)CC2)C1 [Itacitinib] 0
CC(=O)Nc1cccc(-n2c(=O)n(C3CC3)c(=O)c3c(Nc4ccc(I)cc4F)n(C)c(=O)c(C)c32)c1 [Trametinib] 0
C[C@H](CCC(=O)NCCS(=O)(=O)O)[C@H]1CC[C@H]2[C@@H]3[C@@H](O)C[C@@H]4C[C@H](O)CC[C@]4(C)[C@H]3CC[C@]12C [Tauroursodeoxycholate (sodium)] 0
Cc1cccc(/C=N/Nc2cc(N3CCOCC3)nc(OCCc3ccccn3)n2)c1 [Apilimod (mesylate)] 0
N#CCNC(=O)c1ccc(-c2ccnc(Nc3ccc(N4CCOCC4)cc3)n2)cc1 [Momelotinib] 0
C[S+]([O-])c1ccc(-c2nc(-c3ccc(F)cc3)c(-c3ccncc3)[nH]2)cc1 (centres undefined) 0
COc1cc2c(cc1OC)-c1c(C)c3ccc(OC)c(OC)c3c[n+]1CC2 [Dehydrocorydaline (chloride)] 0
CCCC(=O)Nc1ncnc2c1ncn2[C@@H]1O[C@@H]2COP(=O)(O)O[C@H]2[C@H]1OC(=O)CCC [Bucladesine (sodium)] 0
COc1ccnc(C[S+]([O-])c2nc3cc(-n4cccc4)ccc3[nH]2)c1C (centres undefined) [Ilaprazole] 0
COC(=O)[C@H](CC(C)C)NC(=O)c1ccc(NC[C@@H](N)CS)cc1-c1cccc2ccccc12 0
COc1ncc(F)cc1CNc1ccc(Cc2c[nH]c3ncc(C)cc23)c(F)n1 0
C#Cc1cccc(Nc2ncnc3cc(OCCOC)c(OCCO)cc23)c1 [Desmethyl Erlotinib] 0
Cn1ncc(Cl)c1-c1cc(C(=O)N[C@H](CN)Cc2cccc(F)c2)sc1Cl [Afuresertib] 0
O=C(c1ccc(F)c(F)c1Nc1ccc(I)cc1F)N1CC(O)([C@@H]2CCCCN2)C1 [Cobimetinib (hemifumarate)] 0
COc1cc(/C=C/C(=O)O)ccc1O [Ferulic acid (sodium)] 0
CNc1ncc2cc(-c3ccc(-c4cccc(C)n4)cc3Cl)c(=O)n(C[C@H]3OC[C@H](N)CO3)c2n1 0
COC(=O)[C@H](CC(C)C)NC(=O)c1ccc(NC[C@@H](N)CS)cc1-c1cccc2ccccc12 [GGTI298 (Trifluoroacetate)] 0
Nc1cncc(-c2cn3ccnc3c(Nc3ccc(N4CCN(C5COC5)CC4)cc3)n2)n1 [Lanraplenib (succinate)] 0
CN(C)C(=O)c1cc2cnc(Nc3ccc(N4CCNCC4)cn3)nc2n1C1CCCC1 [Ribociclib] 0
CC(C)NC[C@@H](C(=O)N1CCN(c2ncnc3c2[C@H](C)C[C@H]3O)CC1)c1ccc(Cl)cc1 [Ipatasertib] 0
COc1cc(/C=C/C(=O)O)ccc1O [Ferulic acid] 0
CN(C)C/C=C/C(=O)Nc1cc2c(Nc3ccc(F)c(Cl)c3)ncnc2cc1O[C@H]1CCOC1 [Afatinib] 0
